Assay results published in patent publication US20190142860A1, “NUCLEIC ACID BASED TIA-1 INHIBITORS” (Aquinnah Pharmaceuticals, Inc., priority 2015, published 2019).
Results are given in words; binding and its absence hold for the method and conditions named. Some binding calls cover weakened binding; strength is not graded here.

By UniProt entry, the sequences of proteins in these tests, tags left out. Residues count along the entry.
UniProt P10637, residues 2-733: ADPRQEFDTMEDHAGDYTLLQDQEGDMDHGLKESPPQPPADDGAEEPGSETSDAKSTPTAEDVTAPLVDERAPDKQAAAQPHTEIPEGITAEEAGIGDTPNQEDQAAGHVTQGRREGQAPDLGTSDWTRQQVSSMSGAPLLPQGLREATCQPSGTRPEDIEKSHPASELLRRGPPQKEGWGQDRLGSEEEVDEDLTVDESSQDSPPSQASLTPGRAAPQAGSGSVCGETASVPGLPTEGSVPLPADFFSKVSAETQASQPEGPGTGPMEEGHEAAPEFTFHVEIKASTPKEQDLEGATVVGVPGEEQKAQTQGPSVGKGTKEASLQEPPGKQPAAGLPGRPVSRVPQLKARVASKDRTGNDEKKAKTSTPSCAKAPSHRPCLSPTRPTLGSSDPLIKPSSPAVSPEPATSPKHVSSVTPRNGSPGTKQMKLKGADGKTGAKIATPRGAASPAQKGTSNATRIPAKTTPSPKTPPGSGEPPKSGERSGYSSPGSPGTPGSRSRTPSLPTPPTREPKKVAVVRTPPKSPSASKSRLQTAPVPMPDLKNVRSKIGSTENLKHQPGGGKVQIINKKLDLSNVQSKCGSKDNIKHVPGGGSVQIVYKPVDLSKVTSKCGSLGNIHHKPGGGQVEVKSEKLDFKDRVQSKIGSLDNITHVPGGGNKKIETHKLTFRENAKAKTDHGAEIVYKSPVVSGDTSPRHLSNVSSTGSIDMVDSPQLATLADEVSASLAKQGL

Target: T1, Nucleolysin TIA-1 (endogenous mouse TIA1) (mouse) (UniProt P52912)
T1 sequence (looked up): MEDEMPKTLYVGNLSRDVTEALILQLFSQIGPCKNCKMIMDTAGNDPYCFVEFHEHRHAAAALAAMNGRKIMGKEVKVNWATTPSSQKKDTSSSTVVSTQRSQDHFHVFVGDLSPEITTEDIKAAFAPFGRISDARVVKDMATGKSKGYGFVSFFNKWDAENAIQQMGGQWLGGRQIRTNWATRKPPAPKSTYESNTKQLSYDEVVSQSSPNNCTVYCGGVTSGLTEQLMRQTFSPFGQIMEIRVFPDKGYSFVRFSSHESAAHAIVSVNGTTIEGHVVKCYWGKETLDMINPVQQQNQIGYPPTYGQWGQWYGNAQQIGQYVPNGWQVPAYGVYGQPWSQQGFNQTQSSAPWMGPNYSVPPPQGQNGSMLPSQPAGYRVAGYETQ
Experiment: TIA1 IP, LC-MS/MS and immunoblot, mouse cortex

- binding: binds
Substance: Microtubule-associated protein tau (endogenous mouse tau) (from UniProt P10637 2-733)
